# Results from PubChem BioAssay AID1259415 (National Center for Advancing Translational Sciences (NCATS), 2018).
# The whole screen tested about 410,000 compounds, of which about 18,000 (4.4%) were called active. This list was built around the results that the source calls inconclusive (neither active nor inactive); the mix of calls is not that of the screen. Rule as the data show it: active = activity change below about -60%; inconclusive = no clear call, values can overlap the other calls; inactive = above about -39%. A structure can be active in one record and inactive in another.
# Experiment: qHTS Assay for inhibitors of the human cytomegalovirus (HCMV)
# Details: HFF cells, HCMV-luciferase reporter, 72 h; at 57.5 µM; hits give low values
# Outline: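 Two-dose cell screen: HFF monolayers treated with compounds and infected with luciferase-expressing HCMV at 1 PFU/cell, 72 h at 37C, then lysed for luciferase measurement.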
# % is scaled to controls: 0 for no effect and ±100 for the full control effect.
row,SMILES,"activity change, negative = inhibition"
1,COc1ccc(Cl)cc1NC(=O)c1cc2ccc3ccc(C)[nH]c3c2n1,inconclusive: -54.2%
2,COc1ccc(/C=C(/NC(=O)c2ccccc2)C(=O)N/N=C/c2sccc2C)cc1,inconclusive: -42.3%
3,NC(=O)C1(N2CCCCC2)CCN(Cc2ccc(Br)cc2)CC1,inconclusive: -48%
4,CC(C)CCNC(=O)C1CCN(S(=O)(=O)c2ccc(-n3cnnn3)cc2)CC1,inactive: 4.73%
5,COc1ccccc1N(C)S(=O)(=O)c1ccc(C(=O)OCC(=O)NCCC2=CCCCC2)cc1,active: -61.8%
6,C=CCn1c(SCC(=O)Nc2sccc2C(N)=O)nc2sc(C)c(C)c2c1=O,inconclusive: -48.5%
7,COC(=O)C1Cc2c([nH]c3ccccc23)C2(CCN(Cc3ccccc3)CC2)N1 (stereo not drawn),inconclusive: -54.7%
8,CCN(c1ccccc1)S(=O)(=O)c1ccc(C(=O)Nc2ccccn2)cc1,inconclusive: -44%
9,O=C(/C=C/c1ccc2c(c1)OCO2)Nc1nc(-c2ccccc2)cs1,inconclusive: -44.5%
10,CC(C)C[C@H]1CN=C(Nc2ccccc2)N1CCc1ccc(F)cc1,inconclusive: -49.8%
11,COCc1nnc(NC(=O)c2ccc(S(=O)(=O)N3CCCc4ccccc43)cc2)o1,active: -78.4%
12,Cc1ccc(NC(=O)Cn2nnc(-c3ccccc3NC(=O)c3cccs3)n2)cc1,inconclusive: -57.3%
13,CCc1ccccc1N(C)S(=O)(=O)c1ccc(-c2cc(C)no2)s1,inconclusive: -51%
14,N#Cc1ccc(CSc2nnc(NC(=O)c3ccc4ncsc4c3)s2)cc1,inconclusive: -55.8%
15,O=C(c1cncc(Br)c1)N1CCc2ccccc2C1,inconclusive: -45.4%
16,O=C(Nc1ccc(Br)cc1)C(Nc1ccccc1)c1ccccc1F (stereo not drawn),inconclusive: -49.4%
17,Cc1ccccc1NC(=O)CSc1nnc(-c2ccccn2)o1,inactive: 59.3%
18,CCN(CC)CCNC(=O)c1sc2ncn(CC(=O)Nc3ccc(C)c(Cl)c3)c(=O)c2c1C,inconclusive: -56.3%
19,CCCc1nn2c(=O)cc(COc3ccc(NC(=O)c4ccco4)cc3)nc2s1,inconclusive: -47.1%
20,O=C(NC1CCCCCC1)c1ccc(CS(=O)(=O)Cc2ccccc2F)o1,inconclusive: -40.9%
21,Cc1nn(CC(=O)Nc2cc(F)ccc2F)c(=O)c2cccn12,inactive: 7%
22,CC(C)(C)c1ccccc1NC(=O)CSc1nc(-c2cccs2)cc(C(F)(F)F)n1,inconclusive: -42%

row,SMILES,"activity change, negative = inhibition"
1,Cc1cc(Nc2ccc(Cl)cc2C)nc(-n2nc(C)cc2C)n1,inconclusive: -49.5%
2,CC(C)c1noc(-c2ccccc2OCC(=O)Nc2ccccc2[N+](=O)[O-])n1,inconclusive: -58.3%
3,CCCn1c(SCC(=O)Nc2ccc(F)c(Cl)c2)nc(O)cc1=O,inactive: -20.1%
4,Cc1nn2c(NCCN3CCOCC3)c3c(nc2c1-c1ccccc1)CCCC3,inconclusive: -55.8%
5,Cc1nonc1NC(=O)CSc1nc2ccc(Cl)cc2[nH]1,inconclusive: -59.1%
6,Cc1cccc(N=Nc2c(N)n[nH]c2-c2ccc(Cl)cc2)c1,inconclusive: -51.6%
7,O=C(CCc1nc(-c2ccccc2F)no1)NC1CCCCCC1,inconclusive: -47.8%
8,CCn1c(SCc2cccc(C)c2)nnc1-c1ccc(C)cc1,inconclusive: -40.4%
9,CC(=O)OC1OCCOC1NC(=S)Nc1cccc(C(F)(F)F)c1 (stereo not drawn),inactive: -31.7%
10,CCOc1ccc(N(C(C)C(=O)N2CCCCCC2)S(C)(=O)=O)cc1 (stereo not drawn),inactive: 1.23%
11,CCOc1ccc(/C=N/OCC(=O)NCc2cccs2)cc1,inconclusive: -47%
12,Cc1ccc2c(c1)NC(C(C)(C)C)CO2 (stereo not drawn),inconclusive: -43.3%
13,C=CCn1c(SCC(=O)c2cccs2)nc2sc(CC)cc2c1=O,inconclusive: -45.7%
14,O=C(c1cc2ccc3cccnc3c2[nH]1)N1CCN(c2ccc(Cl)cc2)CC1,inactive: 5.64%
15,Cc1cccc(N2CCN(C(=O)CCS(=O)(=O)c3ccc4c(c3)oc(=O)n4C)CC2)c1C,active: -61.6%
16,COc1ccc(S(=O)(=O)Nc2ccccc2C)cc1C(=O)N1CCOCC1,inconclusive: -46.7%
17,Cc1ccc(C)c(OCC(=O)N/N=C\c2cccn2C)c1,inconclusive: -42%
18,O=c1oc2ccccc2cc1-c1csc(Cc2nc(-c3ccc(Br)cc3)cs2)n1,active: -98.6%
19,Fc1ccc(-c2cc(C(F)(F)F)nc(NCC3CCCO3)n2)cc1 (stereo not drawn),inactive: -2.39%
20,Cc1ccccc1NC(=O)CCC(=O)N1CC(C)Sc2ccccc21 (stereo not drawn),inconclusive: -45.4%
21,CCO/N=C1\C(=O)N(c2ccccc2)c2ccccc21,inconclusive: -40%
22,CCc1ccc(C(=O)CN(C#N)c2nc(C)cc(C)n2)cc1,inconclusive: -47.3%

row,SMILES,"activity change, negative = inhibition"
1,COc1ccc(C(=O)Cn2c(=O)oc3ccc(C)cc32)cc1,inconclusive: -55%
2,Cc1cccc(N(CC(=O)NC2CCCCC2)C(=O)c2ccc(C)s2)c1,inconclusive: -41.8%
3,O=C1c2cccc3cccc(c23)C(=O)N1CCCN1CCN(c2ccc(F)cc2)CC1,inconclusive: -49.2%
4,CC1CC2(C)Oc3ccccc3CC2C(C)C1CNCCCN(C)C (stereo not drawn),active: -98.5%
5,C[C@@H]1CN([C@H](C)CO)C(=O)CCCn2nncc2CO[C@@H]1CN(C)C(=O)C1CC1,inactive: 9.59%
6,Cc1ccc(C(C(=O)NC2CCCCC2)N(C(=O)c2csnn2)C2CC2)cc1 (stereo not drawn),inconclusive: -42.6%
7,CCCc1ccc(C(=O)O/N=C(\N)c2ccccn2)cc1,active: -70.1%
8,CCOC(=O)CC1(O)CSc2nc(N)cc(=O)n21 (stereo not drawn),active: -76.5%
9,CCOC(=O)c1cc2c(=O)n3ccccc3nc2n(CC2CCCO2)c1=NC(=O)c1ccc(OC)cc1OC (stereo not drawn),inactive: 7.89%
10,Cc1cccc(OCc2nnc(SCC(=O)Nc3cccc(C(=O)N4CCOCC4)c3)n2C)c1,inactive: 6.26%
11,COc1ccccc1NS(=O)(=O)c1ccc(C(N)=O)cc1,inconclusive: -51.1%
12,CCOc1ccc(/C=N/NC(=O)Cc2csc(Nc3cccc(C(F)(F)F)c3)n2)cc1,inconclusive: -58.2%
13,CC(=O)c1c(C)n(-c2ccccc2)c2ccc(O)cc12,active: -63.8%
14,Cc1cc(C(=O)OCC(=O)Nc2ncc(C(F)(F)F)cc2Cl)c(C)o1,inconclusive: -42.7%
15,COc1ccc(N2CCN(C(c3cccs3)C(C)NC(=O)c3ccc4c(c3)OCO4)CC2)cc1 (stereo not drawn),inconclusive: -47.5%
16,CC1=CC(c2ccc(Cl)cc2)n2ncnc2N1 (stereo not drawn),inconclusive: -54.3%
17,CCc1nn(CCCC(=O)NCc2ccco2)c(=O)c2cc3occc3n12,inconclusive: -47.5%
18,CCN(CC)S(=O)(=O)c1ccc(-c2cn3cc(Cl)ccc3n2)cc1,inconclusive: -43.5%
19,Cc1nn(Cc2c(F)c(F)c(F)c(F)c2F)c(C)c1NC(=O)c1ccc(COc2ccc(F)cc2)o1,inconclusive: -48%
20,O=C(Nc1ccc(C(=O)NC2CCCCC2)cc1)c1cncc(Br)c1,inactive: -26.8%
21,CC(C)c1ccc(N(C(=O)c2snc(C(N)=O)c2N)C(C(=O)NCC2CCCO2)c2ccc(N(C)C)cc2)cc1 (stereo not drawn),active: -85.8%
22,COc1ccc(C(=O)N[C@H](C(=O)OCC(=O)NC(=O)c2cccn2C)C(C)C)cc1,inconclusive: -46.4%

row,SMILES,"activity change, negative = inhibition"
1,CCOC(=O)c1c(/N=C/N(C)C)sc(C=O)c1-c1ccccc1,inconclusive: -43%
2,O=C(Cn1c(=O)oc2cc(S(=O)(=O)N3CCCC3)ccc21)N1CCN(c2ccccc2F)CC1,inconclusive: -58.4%
3,CN1CC2=Cc3ccccc3OC23Oc2ccccc2C=C3C1,active: -80.1%
4,CSc1ccccc1OCc1cc(C(=O)NCC(C)(C)N2CCOCC2)no1,inconclusive: -44%
5,Cc1ccc(Cn2cnc3ccccc32)cc1C,active: -63.2%
6,Cn1c(=O)c(-c2ccccc2[N+](=O)[O-])c(Cl)c2ccccc21,inconclusive: -44.6%
7,Cc1oc2ccc(O)c(CN3CCN(C)CC3)c2c1C(=O)Nc1cccc(C(F)(F)F)c1,inconclusive: -40.2%
8,c1ccc2cc3c(NCCN4CCOCC4)ccnc3cc2c1,active: -98.8%
9,O=C(COC(=O)c1ccc[nH]c1=O)NCCc1ccc(Cl)cc1Cl,inactive: 26.6%
10,Cc1ccc(C)c2[nH]c(=O)c(CCNC(=O)CCc3ccccc3)cc12,active: -75.7%
11,CCOC(=O)c1cc2c(=O)n3ccccc3nc2n(CC2CCCO2)c1=NC(=O)c1ccccc1OCC (stereo not drawn),inactive: -2.53%
12,COc1ccc(C(=O)NC(=S)NNC(=O)c2cnccn2)cc1,active: -84.9%
13,O=C(Nc1ccc(Cl)c(S(=O)(=O)N2CCOCC2)c1)c1ccccc1-c1ccc(C(F)(F)F)cc1,inconclusive: -45.2%
14,CCN(CC)c1ccc(NC(=O)Cn2cc3c(n2)CCCC3)c(C)c1,inactive: -28.6%
15,CCCCN(CC)c1nc(-c2ccncc2)nc2ccccc12,active: -94.7%
16,COc1ccnc(Oc2ccc(F)cc2)c1C(=O)N/C=N/OCc1c(Cl)cccc1Cl,inconclusive: -58.3%
17,Cc1cc(C)n(C(=O)CNC(=O)c2cccc(Br)c2)n1,inconclusive: -42.6%
18,C=CCNC(=O)c1ccccc1NS(=O)(=O)c1ccccc1,inconclusive: -56.2%
19,COc1cccc(CNC(=O)c2cc3cc(C)ccc3n2C)c1,inconclusive: -58.4%
20,CCCS(=O)(=O)c1nc(S(=O)(=O)c2ccc(C)cc2)c(N2CCC(C(N)=O)CC2)s1,inconclusive: -55.7%
21,CCCn1c2ccccc2c2cn[nH]c(=O)c21,inconclusive: -55.4%
22,Cc1nc2c(C)cccc2cc1C(=O)N/N=C/c1ccc(O)cc1,inconclusive: -56.7%

# Part of the list above, set out differently.
row	SMILES	activity change, negative = inhibition
7	Cc1oc2ccc(O)c(CN3CCN(C)CC3)c2c1C(=O)Nc1cccc(C(F)(F)F)c1	inconclusive: -40.2%
8	c1ccc2cc3c(NCCN4CCOCC4)ccnc3cc2c1	active: -98.8%
9	O=C(COC(=O)c1ccc[nH]c1=O)NCCc1ccc(Cl)cc1Cl	inactive: 26.6%
10	Cc1ccc(C)c2[nH]c(=O)c(CCNC(=O)CCc3ccccc3)cc12	active: -75.7%
11	CCOC(=O)c1cc2c(=O)n3ccccc3nc2n(CC2CCCO2)c1=NC(=O)c1ccccc1OCC (stereo not drawn)	inactive: -2.53%
12	COc1ccc(C(=O)NC(=S)NNC(=O)c2cnccn2)cc1	active: -84.9%
13	O=C(Nc1ccc(Cl)c(S(=O)(=O)N2CCOCC2)c1)c1ccccc1-c1ccc(C(F)(F)F)cc1	inconclusive: -45.2%
14	CCN(CC)c1ccc(NC(=O)Cn2cc3c(n2)CCCC3)c(C)c1	inactive: -28.6%
15	CCCCN(CC)c1nc(-c2ccncc2)nc2ccccc12	active: -94.7%
16	COc1ccnc(Oc2ccc(F)cc2)c1C(=O)N/C=N/OCc1c(Cl)cccc1Cl	inconclusive: -58.3%
17	Cc1cc(C)n(C(=O)CNC(=O)c2cccc(Br)c2)n1	inconclusive: -42.6%
18	C=CCNC(=O)c1ccccc1NS(=O)(=O)c1ccccc1	inconclusive: -56.2%
19	COc1cccc(CNC(=O)c2cc3cc(C)ccc3n2C)c1	inconclusive: -58.4%
20	CCCS(=O)(=O)c1nc(S(=O)(=O)c2ccc(C)cc2)c(N2CCC(C(N)=O)CC2)s1	inconclusive: -55.7%
21	CCCn1c2ccccc2c2cn[nH]c(=O)c21	inconclusive: -55.4%
22	Cc1nc2c(C)cccc2cc1C(=O)N/N=C/c1ccc(O)cc1	inconclusive: -56.7%
